Binding data for 18 molecules are collected here from publication PMC4231120.

Amino acid sequences for entries named in this document (tags omitted). A change or cut given only in a name is not applied to a line headed by its entry. Residues count along the entry.
UniProt P37702, residues 20-541: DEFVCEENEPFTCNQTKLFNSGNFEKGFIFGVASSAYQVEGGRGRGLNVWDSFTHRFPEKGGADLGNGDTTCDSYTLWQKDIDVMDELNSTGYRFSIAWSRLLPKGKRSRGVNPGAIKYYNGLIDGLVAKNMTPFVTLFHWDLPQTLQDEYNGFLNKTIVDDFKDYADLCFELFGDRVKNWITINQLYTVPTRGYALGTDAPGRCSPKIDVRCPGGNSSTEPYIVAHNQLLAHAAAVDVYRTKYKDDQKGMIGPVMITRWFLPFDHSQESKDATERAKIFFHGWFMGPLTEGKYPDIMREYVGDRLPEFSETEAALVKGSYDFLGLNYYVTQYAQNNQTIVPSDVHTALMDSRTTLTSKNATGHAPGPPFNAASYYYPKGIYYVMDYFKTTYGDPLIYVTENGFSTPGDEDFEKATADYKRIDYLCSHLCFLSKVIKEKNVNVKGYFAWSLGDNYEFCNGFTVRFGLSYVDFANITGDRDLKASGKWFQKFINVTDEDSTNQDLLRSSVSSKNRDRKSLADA
UniProt Q9LKR3, residues 28-669: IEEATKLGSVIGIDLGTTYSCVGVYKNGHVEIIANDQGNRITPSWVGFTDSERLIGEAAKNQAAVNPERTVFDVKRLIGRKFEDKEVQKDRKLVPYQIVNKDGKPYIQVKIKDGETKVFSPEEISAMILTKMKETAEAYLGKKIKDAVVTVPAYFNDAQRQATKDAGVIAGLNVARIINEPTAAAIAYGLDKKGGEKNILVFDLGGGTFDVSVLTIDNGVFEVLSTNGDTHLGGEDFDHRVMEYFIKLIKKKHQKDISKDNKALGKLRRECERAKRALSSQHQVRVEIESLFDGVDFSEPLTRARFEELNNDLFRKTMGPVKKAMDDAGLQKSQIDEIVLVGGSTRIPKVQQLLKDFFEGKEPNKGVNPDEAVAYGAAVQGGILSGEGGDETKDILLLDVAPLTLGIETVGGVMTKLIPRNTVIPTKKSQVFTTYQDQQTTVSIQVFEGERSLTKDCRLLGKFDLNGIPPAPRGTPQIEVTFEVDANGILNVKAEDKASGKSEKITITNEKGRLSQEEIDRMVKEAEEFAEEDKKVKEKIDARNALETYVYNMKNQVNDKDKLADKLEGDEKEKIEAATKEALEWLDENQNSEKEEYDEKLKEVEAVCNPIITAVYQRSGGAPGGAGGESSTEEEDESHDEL
UniProt Q0WNJ6: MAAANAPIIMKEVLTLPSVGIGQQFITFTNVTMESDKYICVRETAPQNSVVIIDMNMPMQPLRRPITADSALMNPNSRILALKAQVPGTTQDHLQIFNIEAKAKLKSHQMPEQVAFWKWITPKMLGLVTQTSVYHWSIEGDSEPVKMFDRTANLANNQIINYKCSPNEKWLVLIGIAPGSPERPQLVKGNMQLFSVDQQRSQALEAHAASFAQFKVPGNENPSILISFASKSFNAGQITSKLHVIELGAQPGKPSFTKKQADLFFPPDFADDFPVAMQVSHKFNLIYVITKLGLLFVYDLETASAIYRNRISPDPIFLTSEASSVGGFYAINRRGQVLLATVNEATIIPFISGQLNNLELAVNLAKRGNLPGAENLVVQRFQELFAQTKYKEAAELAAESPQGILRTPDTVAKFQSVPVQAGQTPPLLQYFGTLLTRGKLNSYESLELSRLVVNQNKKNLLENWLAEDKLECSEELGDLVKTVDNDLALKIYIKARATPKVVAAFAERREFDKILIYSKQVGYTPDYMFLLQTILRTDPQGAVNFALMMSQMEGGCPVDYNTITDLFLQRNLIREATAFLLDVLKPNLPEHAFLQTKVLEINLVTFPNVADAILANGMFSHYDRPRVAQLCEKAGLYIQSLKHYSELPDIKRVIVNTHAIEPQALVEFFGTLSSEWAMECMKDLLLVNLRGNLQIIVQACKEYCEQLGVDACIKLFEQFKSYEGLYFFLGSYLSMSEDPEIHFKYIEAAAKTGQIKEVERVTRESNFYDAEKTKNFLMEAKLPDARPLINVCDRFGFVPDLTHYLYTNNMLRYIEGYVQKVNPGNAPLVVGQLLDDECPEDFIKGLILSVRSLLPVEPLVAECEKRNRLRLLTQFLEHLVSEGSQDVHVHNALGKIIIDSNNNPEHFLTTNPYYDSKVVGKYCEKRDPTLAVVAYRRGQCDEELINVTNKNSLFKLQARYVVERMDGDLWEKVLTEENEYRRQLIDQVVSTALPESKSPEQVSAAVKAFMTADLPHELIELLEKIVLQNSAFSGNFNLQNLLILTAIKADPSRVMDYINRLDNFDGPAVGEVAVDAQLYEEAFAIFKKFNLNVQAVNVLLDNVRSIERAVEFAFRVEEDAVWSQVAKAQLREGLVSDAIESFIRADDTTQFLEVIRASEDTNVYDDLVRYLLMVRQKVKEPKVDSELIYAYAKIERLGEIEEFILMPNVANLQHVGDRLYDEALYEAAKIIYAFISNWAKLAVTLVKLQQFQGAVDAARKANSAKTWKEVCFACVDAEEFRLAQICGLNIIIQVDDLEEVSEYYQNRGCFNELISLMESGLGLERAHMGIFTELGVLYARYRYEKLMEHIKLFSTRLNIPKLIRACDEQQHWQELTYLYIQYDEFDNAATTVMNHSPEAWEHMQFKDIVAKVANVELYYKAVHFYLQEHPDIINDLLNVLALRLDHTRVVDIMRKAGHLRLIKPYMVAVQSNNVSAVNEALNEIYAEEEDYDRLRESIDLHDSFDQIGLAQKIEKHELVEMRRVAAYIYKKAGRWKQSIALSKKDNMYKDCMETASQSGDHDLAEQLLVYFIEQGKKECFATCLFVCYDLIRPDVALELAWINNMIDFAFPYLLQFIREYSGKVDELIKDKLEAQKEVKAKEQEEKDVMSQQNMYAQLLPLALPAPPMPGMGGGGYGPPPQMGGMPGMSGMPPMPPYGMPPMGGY
UniProt Q9FVT2: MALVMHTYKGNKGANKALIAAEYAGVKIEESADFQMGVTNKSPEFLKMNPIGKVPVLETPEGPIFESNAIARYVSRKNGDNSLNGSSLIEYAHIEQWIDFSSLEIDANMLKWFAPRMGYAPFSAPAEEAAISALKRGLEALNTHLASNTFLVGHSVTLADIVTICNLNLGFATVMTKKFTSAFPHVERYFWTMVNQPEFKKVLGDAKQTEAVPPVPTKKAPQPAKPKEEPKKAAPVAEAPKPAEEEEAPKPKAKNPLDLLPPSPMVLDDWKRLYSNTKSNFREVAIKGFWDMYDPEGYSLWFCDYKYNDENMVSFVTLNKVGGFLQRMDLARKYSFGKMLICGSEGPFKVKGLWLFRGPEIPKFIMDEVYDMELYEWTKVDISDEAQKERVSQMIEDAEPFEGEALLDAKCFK
UniProt Q9LFA3: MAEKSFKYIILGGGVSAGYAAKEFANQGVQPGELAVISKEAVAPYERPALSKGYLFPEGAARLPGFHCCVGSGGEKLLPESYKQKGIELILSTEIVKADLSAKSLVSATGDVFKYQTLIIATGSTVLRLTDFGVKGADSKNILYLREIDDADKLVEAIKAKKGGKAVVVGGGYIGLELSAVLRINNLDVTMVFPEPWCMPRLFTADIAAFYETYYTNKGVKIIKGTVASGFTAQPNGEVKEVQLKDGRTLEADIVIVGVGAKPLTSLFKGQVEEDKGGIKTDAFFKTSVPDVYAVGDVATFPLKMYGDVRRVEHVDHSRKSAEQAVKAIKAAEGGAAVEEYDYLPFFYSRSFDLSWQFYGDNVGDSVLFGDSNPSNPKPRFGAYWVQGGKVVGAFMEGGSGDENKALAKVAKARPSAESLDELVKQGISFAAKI
UniProt Q9M9P3: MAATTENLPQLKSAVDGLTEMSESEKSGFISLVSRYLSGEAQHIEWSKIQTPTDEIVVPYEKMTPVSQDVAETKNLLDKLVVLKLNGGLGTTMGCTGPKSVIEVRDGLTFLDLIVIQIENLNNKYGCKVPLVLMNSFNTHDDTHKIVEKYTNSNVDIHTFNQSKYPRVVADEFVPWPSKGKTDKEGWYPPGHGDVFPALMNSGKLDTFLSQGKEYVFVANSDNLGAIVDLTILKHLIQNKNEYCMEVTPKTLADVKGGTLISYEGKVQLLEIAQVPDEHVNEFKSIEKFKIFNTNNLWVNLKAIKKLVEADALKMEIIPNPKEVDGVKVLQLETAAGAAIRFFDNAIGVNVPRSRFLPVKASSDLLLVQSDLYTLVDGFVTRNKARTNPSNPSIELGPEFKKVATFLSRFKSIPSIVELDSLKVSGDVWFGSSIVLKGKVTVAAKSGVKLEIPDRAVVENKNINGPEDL
UniProt P29514: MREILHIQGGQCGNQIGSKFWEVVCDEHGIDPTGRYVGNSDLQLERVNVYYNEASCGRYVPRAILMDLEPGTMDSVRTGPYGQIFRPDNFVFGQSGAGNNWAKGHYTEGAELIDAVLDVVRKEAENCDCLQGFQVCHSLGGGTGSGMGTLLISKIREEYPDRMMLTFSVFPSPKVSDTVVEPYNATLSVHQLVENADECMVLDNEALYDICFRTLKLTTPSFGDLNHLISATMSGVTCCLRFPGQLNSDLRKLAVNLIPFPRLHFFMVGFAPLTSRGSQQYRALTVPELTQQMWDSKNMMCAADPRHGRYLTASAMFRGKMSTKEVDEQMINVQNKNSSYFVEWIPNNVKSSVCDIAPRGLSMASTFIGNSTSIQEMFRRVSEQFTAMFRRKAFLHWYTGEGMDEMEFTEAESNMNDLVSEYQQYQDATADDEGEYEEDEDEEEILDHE
UniProt P29516: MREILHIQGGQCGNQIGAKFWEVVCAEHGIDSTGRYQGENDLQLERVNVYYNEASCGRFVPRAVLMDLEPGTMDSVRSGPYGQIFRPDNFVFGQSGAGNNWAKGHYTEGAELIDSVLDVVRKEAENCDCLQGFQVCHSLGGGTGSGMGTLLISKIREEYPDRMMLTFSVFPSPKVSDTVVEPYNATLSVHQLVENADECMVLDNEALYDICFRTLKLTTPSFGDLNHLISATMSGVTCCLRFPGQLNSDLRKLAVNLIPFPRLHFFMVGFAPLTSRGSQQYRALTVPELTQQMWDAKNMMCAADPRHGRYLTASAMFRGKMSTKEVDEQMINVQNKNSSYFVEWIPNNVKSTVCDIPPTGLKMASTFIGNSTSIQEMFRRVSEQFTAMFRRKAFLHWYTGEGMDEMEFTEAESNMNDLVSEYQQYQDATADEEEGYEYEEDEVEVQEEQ
UniProt Q9SJT9: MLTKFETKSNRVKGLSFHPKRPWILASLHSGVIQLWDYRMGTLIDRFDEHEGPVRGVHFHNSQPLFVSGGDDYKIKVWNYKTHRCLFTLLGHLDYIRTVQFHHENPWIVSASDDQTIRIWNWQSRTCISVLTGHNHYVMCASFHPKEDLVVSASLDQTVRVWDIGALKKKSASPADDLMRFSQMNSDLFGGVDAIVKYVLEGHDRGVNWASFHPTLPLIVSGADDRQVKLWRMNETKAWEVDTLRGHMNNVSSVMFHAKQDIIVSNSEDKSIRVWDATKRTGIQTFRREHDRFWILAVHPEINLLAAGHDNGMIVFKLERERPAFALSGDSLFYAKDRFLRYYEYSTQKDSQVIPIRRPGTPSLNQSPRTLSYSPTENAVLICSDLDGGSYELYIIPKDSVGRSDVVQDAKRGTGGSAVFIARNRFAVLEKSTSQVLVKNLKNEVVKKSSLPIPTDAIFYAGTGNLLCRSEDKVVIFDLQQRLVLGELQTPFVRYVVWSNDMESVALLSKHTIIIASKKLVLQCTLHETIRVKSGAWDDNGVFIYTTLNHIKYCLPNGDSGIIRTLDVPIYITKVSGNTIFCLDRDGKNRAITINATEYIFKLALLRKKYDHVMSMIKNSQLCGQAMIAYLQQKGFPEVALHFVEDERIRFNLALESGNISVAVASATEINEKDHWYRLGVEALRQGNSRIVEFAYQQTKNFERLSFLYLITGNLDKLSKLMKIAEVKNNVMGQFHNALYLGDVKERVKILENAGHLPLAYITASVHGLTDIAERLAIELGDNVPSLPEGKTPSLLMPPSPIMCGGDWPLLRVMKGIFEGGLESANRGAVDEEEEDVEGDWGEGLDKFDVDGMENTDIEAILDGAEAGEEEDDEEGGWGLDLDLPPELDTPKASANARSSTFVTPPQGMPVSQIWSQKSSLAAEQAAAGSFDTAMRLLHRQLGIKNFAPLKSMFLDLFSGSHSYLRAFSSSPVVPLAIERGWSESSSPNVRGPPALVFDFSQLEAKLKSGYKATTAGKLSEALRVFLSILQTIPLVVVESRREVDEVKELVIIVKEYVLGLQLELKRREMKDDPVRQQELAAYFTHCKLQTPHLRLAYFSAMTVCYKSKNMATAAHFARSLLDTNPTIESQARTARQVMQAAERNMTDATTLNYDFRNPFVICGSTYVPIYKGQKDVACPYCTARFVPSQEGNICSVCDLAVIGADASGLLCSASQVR

Results are given in words; binding and its absence hold for the method and conditions named. Binding seen in cells or lysates may run through a third protein. Here binding means that the protein was enriched with, or labelled near, the bait; the list need not be complete. Where a sequence is shown, tags or fusion partners need not be part of it.

The assay addresses T1, PLASMODESMATA-LOCATED PROTEIN 1 (PDLP1) fused to GFP (Arabidopsis) (UniProt Q8GXV7).
T1 sequence: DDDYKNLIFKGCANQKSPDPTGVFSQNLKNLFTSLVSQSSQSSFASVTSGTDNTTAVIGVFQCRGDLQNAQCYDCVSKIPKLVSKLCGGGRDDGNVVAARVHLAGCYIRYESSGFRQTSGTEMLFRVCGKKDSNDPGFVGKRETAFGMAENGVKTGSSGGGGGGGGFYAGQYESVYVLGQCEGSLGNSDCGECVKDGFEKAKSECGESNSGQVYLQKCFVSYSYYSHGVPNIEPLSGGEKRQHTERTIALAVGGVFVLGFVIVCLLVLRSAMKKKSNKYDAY
Description: affinity purification with mass spectrometry; PDLP1-GFP immunoprecipitated with GFP-Trap beads from leaf extracts of PDLP1 OE plants, Hpa-infected and uninfected; 50 mM Tris-HCl pH 7.5, 150 mM NaCl, 10% glycerol, 1 mM EDTA, 5 mM DTT, 1% IGEPAL CA630; 4°C, 2 h; bands from SDS-PAGE analysed by LC-MS/MS; at least three replicate IPs.

With “BETA GLUCOSIDASE 38 (BGLU38) (from UniProt P37702 20-541)”, the binding entry was “binds”. BiP (BIP1) (from UniProt Q9LKR3 28-669): the binding entry was “binds”. As to PHOSPHATE TRANSPORTER 3;1 (PHT3;1), the binding entry was “binds”. Take “CLATHRIN HEAVY CHAIN 1 (CHC1) (from UniProt Q0WNJ6 1-1705)”: the binding entry was “binds”.

As for “translation elongation factor EF1B (from UniProt Q9FVT2)”, the binding entry was “binds”. As for “[sequence] REDUCTASE 1 (MDAR1) (from UniProt Q9LFA3 1-434)”, the binding entry is given as “binds”. Consider “UDP-GLUCOSE PYROPHOSPHORYLASE 1 (UGP) (from UniProt Q9M9P3)”, for which the binding entry was “binds”. For the molecule “BETA-TUBULIN 6 (TUB6) (from UniProt P29514 1-449)”, the binding entry was “binds”.

Regarding “BETA-TUBULIN 8 (TUB8) (from UniProt P29516 1-449)”, the binding result was “binds”. Regarding “Coatomer, alpha subunit (from UniProt Q9SJT9)”, the binding entry is given as “binds”.

B1: FIBRILLIN 4 (FIB4) (protein, UniProt Q9LW57 73-284)
chain: SSSGSGGDDKQIALLKLKLLSVVSGLNRGLVASVDDLERAEVAAKELETAGGPVDLTDDLDKLQGKWRLLYSSAFSSRSLGGSRPGLPTGRLIPVTLGQVFQRIDVFSKDFDNIAEVELGAPWPFPPLEATATLAHKFELLGTCKIKITFEKTTVKTSGNLSQIPPFDIPRLPDSFRPSSNPGTGDFEVTYVDDTMRITRGDRGELRVFVIA
B1: the binding entry was “binds”.

B2: VACUOLAR ATP SYNTHASE SUBUNIT E1 (VHA-E1) (protein, UniProt Q39258 1-230)
chain: MNDGDVSRQIQQMVRFIRQEAEEKANEISVSAEEEFNIEKLQLVEAEKKKIRQDYEKKEKQADVRKKIDYSMQLNASRIKVLQAQDDIVNAMKDQAAKDLLNVSRDEYAYKQLLKDLIVQCLLRLKEPSVLLRCREEDLGLVEAVLDDAKEEYAGKAKVHAPEVAVDTKIFLPPPPKSNDPHGLHCSGGVVLASRDGKIVCENTLDARLDVAFRMKLPVIRKSLFGQVTA
Turning to B2, the binding result is listed as “binds”.

B3: EMBRYO … 2719 (EMB2719), HAPLESS 15 (HAP15) (protein, UniProt Q9LNU4 1-488)
chain: MTQDVEMKDNNTPSQSIISSSTSTMQNLKEIAALIDTGSYTKEVRRIARAVRLTIGLRQKLTGSVLSSFLDFALVPGSEAHSRLSSFVPKGDEHDMEVDTASSATQAAPSKHLPAELEIYCYFIVLLFLIDQKKYNEAKACSSASIARLKNVNRRTIDVIASRLYFYYSLSYEQTGDLAEIRGTLLALHHSATLRHDELGQETLLNLLLRNYLHYNLYDQAEKLRSKAPRFEAHSNQQFCRYLFYLGKIRTIQLEYTDAKESLLQAARKAPIAALGFRIQCNKWAILVRLLLGEIPERSIFTQKGMEKALRPYFELTNAVRIGDLELFRTVQEKFLDTFAQDRTHNLIVRLRHNVIRTGLRNISISYSRISLPDVAKKLRLNSENPVADAESIVAKAIRDGAIDATIDHKNGCMVSKETGDIYSTNEPQTAFNSRIAFCLNMHNEAVRALRFPPNTHKEKESDEKRRERKQQEEELAKHMAEEDDDDF
As to B3, the binding entry is listed as “binds”.

B4: WHITE-BROWN COMPLEX HOMOLOG PROTEIN 11 (WBC11) (protein, UniProt Q8RXN0 1-703)
chain: MEIEASRQQTTVPVSVGGGNFPVGGLSPLSEAIWREKAPTEFVGDVSARLTWQDLTVMVTMGDGETQNVLEGLTGYAEPGSLTALMGPSGSGKSTMLDALASRLAANAFLSGTVLLNGRKTKLSFGTAAYVTQDDNLIGTLTVRETIWYSARVRLPDKMLRSEKRALVERTIIEMGLQDCADTVIGNWHLRGISGGEKRRVSIALEILMRPRLLFLDEPTSGLDSASAFFVTQTLRALSRDGRTVIASIHQPSSEVFELFDRLYLLSGGKTVYFGQASDAYEFFAQAGFPCPALRNPSDHFLRCINSDFDKVRATLKGSMKLRFEASDDPLEKITTAEAIRLLVDYYHTSDYYYTAKAKVEEISQFKGTILDSGGSQASFLLQTYTLTKRSFINMSRDFGYYWLRLLIYILVTVCIGTIYLNVGTSYSAILARGSCASFVFGFVTFMSIGGFPSFVEDMKVFQRERLNGHYGVAAFVIANTLSATPFLIMITFISGTICYFMVGLHPGFTHYLFFVLCLYASVTVVESLMMAIASIVPNFLMGIIIGAGIQGIFMLVSGFFRLPNDIPKPFWRYPMSYISFHFWALQGQYQNDLRGLTFDSQGSAFKIPGEYVLENVFQIDLHRSKWINLSVILSMIIIYRIIFFIMIKTNEDVTPWVRGYIARRRMKQKNGTQNTTVAPDGLTQSPSLRNYIATRTDGARRW
With B4, the binding entry is “binds”.

B5: LIPID PHOSPHATE PHOSPHATASE 1 (ATPAP1) (protein, UniProt Q9ZU49 1-327)
chain: MTIGSFFSSLLFWRNSQDQEAQRGRMQEIDLSVHTIKSHGGRVASKHKHDWIILVILIAIEIGLNLISPFYRYVGKDMMTDLKYPFKDNTVPIWSVPVYAVLLPIIVFVCFYLKRTCVYDLHHSILGLLFAVLITGVITDSIKVATGRPRPNFYWRCFPDGKELYDALGGVVCHGKAAEVKEGHKSFPSGHTSWSFAGLTFLSLYLSGKIKAFNNEGHVAKLCLVIFPLLAACLVGISRVDDYWHHWQDVFAGALIGTLVAAFCYRQFYPNPYHEEGWGPYAYFKAAQERGVPVTSSQNGDALRAMSLQMDSTSLENMESGTSTAPR
Consider B5, for which the binding entry is “binds”.

B6: BETA-XYLOSIDASE 1 (BXL1) (protein, UniProt Q9FGY1 31-774)
chain: LRPLFACDPANGLTRTLRFCRANVPIHVRVQDLLGRLTLQEKIRNLVNNAAAVPRLGIGGYEWWSEALHGISDVGPGAKFGGAFPGATSFPQVITTAASFNQSLWEEIGRVVSDEARAMYNGGVAGLTYWSPNVNILRDPRWGRGQETPGEDPIVAAKYAASYVRGLQGTAAGNRLKVAACCKHYTAYDLDNWNGVDRFHFNAKVTQQDLEDTYNVPFKSCVYEGKVASVMCSYNQVNGKPTCADENLLKNTIRGQWRLNGYIVSDCDSVDVFFNQQHYTSTPEEAAARSIKAGLDLDCGPFLAIFTEGAVKKGLLTENDINLALANTLTVQMRLGMFDGNLGPYANLGPRDVCTPAHKHLALEAAHQGIVLLKNSARSLPLSPRRHRTVAVIGPNSDVTETMIGNYAGKACAYTSPLQGISRYARTLHQAGCAGVACKGNQGFGAAEAAAREADATVLVMGLDQSIEAETRDRTGLLLPGYQQDLVTRVAQASRGPVILVLMSGGPIDVTFAKNDPRVAAIIWAGYPGQAGGAAIANIIFGAANPGGKLPMTWYPQDYVAKVPMTVMAMRASGNYPGRTYRFYKGPVVFPFGFGLSYTTFTHSLAKSPLAQLSVSLSNLNSANTILNSSSHSIKVSHTNCNSFPKMPLHVEVSNTGEFDGTHTVFVFAEPPINGIKGLGVNKQLIAFEKVHVMAGAKQTVQVDVDACKHLGVVDEYGKRRIPMGEHKLHIGDLKHTILVQPQL
As for B6, the binding entry is “binds”.

B7: ATDJ1A, DJ-1 homolog (protein, UniProt Q9FPF0 1-392)
chain: MASFTKTVLIPIAHGTEPLEAVAMITVLRRGGADVTVASVETQVGVDACHGIKMVADTLLSDITDSVFDLIVLPGGLPGGETLKNCKSLENMVKKQDSDGRLNAAICCAPALALGTWGLLEGKKATGYPVFMEKLAATCATAVESRVQIDGRIVTSRGPGTTIEFSITLIEQLFGKEKADEVSSILLLRPNPGEEFTFTELNQTNWSFEDTPQILVPIAEESEEIEAIALVDILRRAKANVVIAAVGNSLEVEGSRKAKLVAEVLLDEVAEKSFDLIVLPGGLNGAQRFASCEKLVNMLRKQAEANKPYGGICASPAYVFEPNGLLKGKKATTHPVVSDKLSDKSHIEHRVVVDGNVITSRAPGTAMEFSLAIVEKFYGREKALQLGKATLV
Regarding B7, the binding result is “binds”.

B8: PLASMA MEMBRANE … PROTEIN 1B (PIP1;2) (protein, UniProt Q06611 1-286)
chain: MEGKEEDVRVGANKFPERQPIGTSAQSDKDYKEPPPAPLFEPGELASWSFWRAGIAEFIATFLFLYITVLTVMGVKRSPNMCASVGIQGIAWAFGGMIFALVYCTAGISGGHINPAVTFGLFLARKLSLTRAVYYIVMQCLGAICGAGVVKGFQPKQYQALGGGANTIAHGYTKGSGLGAEIIGTFVLVYTVFSATDAKRNARDSHVPILAPLPIGFAVFLVHLATIPITGTGINPARSLGAAIIFNKDNAWDDHWVFWVGPFIGAALAALYHVIVIRAIPFKSRS
In the case of B8, the binding result is on record as “binds”.
